The values below come from publication PMC11781186.

The chains behind the UniProt entries cited, without tags or fusion partners. Where a name states a change or a piece, a line headed by the entry shows the natural chain unless it says otherwise.
UniProt P29317: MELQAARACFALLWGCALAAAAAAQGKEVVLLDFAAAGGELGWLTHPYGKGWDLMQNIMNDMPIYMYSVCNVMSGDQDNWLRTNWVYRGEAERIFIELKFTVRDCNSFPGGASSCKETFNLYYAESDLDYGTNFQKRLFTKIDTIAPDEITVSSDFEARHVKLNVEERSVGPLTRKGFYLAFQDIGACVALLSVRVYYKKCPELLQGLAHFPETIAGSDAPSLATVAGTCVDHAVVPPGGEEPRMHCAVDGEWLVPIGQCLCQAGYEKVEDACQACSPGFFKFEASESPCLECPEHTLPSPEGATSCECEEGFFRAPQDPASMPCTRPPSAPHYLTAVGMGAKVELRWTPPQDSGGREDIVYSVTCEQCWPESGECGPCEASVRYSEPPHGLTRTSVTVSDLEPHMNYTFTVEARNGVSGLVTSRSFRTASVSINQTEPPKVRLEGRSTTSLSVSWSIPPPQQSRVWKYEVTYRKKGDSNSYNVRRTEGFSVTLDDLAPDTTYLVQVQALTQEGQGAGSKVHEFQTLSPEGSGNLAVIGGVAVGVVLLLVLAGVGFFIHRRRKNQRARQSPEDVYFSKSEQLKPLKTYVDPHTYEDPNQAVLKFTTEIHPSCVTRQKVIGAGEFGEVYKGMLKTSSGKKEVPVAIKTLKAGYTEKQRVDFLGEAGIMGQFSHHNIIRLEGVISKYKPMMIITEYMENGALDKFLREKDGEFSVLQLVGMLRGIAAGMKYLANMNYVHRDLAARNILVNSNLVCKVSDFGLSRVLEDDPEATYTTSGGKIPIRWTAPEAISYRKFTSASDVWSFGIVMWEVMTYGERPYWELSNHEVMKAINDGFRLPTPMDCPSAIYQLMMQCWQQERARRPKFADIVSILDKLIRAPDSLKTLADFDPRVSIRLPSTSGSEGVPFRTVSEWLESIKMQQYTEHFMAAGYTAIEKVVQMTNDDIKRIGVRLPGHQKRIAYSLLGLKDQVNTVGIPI

First the molecules themselves.
B1: USP5 UBA1 and UBA2 domain (634-835) (domain or fragment, UniProt P45974-2 634-835)
chain: ESVIIQLVEMGFPMDACRKAVYYTGNSGAEAAMNWVMSHMDDPDFANPLILPGSSGPGSTSAAADPPPEDCVTTIVSMGFSRDQALKALRATNNSLERAVDWIFSHIDDLDAEAAMDISEGRSAADSISESVPVGPKVRDGPGKYQLFAFISHMGTSTMCGHYVCHIKKEGRWVIYNDQKVCASEKPPKDLGYIYFYQRVAS
B2: USP5 USP domain (284-633) (domain or fragment, UniProt P45974-2 284-633)
chain: LKMQKTDKTMTELEIDMNQRIGEWELIQESGVPLKPLFGPGYTGIRNLGNSCYLNSVVQVLFSIPDFQRKYVDKLEKIFQNAPTDPTQDFSTQVAKLGHGLLSGEYSKPVPESGDGERVPEQKEVQDGIAPRMFKALIGKGHPEFSTNRQQDAQEFFLHLINMVERNCRSSENPNEVFRFLVEEKIKCLATEKVKYTQRVDYIMQLPVPMDAALNKEELLEYEEKKRQAEEEKMALPELVRAQVPFSSCLEAYGAPEQVDDFWSTALQAKSVAVKTTRFASFPDYLVIQIKKFTFGLDWVPKKLDVSIEMPEELDISQLRGTGLQPGEEELPDIAPPLVTPDEPKAPMLD
B3: ZnF-UBP domain deletion (D1-283) USP5 (domain or fragment, UniProt P45974-2 284-835)
chain: LKMQKTDKTMTELEIDMNQRIGEWELIQESGVPLKPLFGPGYTGIRNLGNSCYLNSVVQVLFSIPDFQRKYVDKLEKIFQNAPTDPTQDFSTQVAKLGHGLLSGEYSKPVPESGDGERVPEQKEVQDGIAPRMFKALIGKGHPEFSTNRQQDAQEFFLHLINMVERNCRSSENPNEVFRFLVEEKIKCLATEKVKYTQRVDYIMQLPVPMDAALNKEELLEYEEKKRQAEEEKMALPELVRAQVPFSSCLEAYGAPEQVDDFWSTALQAKSVAVKTTRFASFPDYLVIQIKKFTFGLDWVPKKLDVSIEMPEELDISQLRGTGLQPGEEELPDIAPPLVTPDEPKAPMLDESVIIQLVEMGFPMDACRKAVYYTGNSGAEAAMNWVMSHMDDPDFANPLILPGSSGPGSTSAAADPPPEDCVTTIVSMGFSRDQALKALRATNNSLERAVDWIFSHIDDLDAEAAMDISEGRSAADSISESVPVGPKVRDGPGKYQLFAFISHMGTSTMCGHYVCHIKKEGRWVIYNDQKVCASEKPPKDLGYIYFYQRVAS

Results are given in words; binding and its absence hold for the method and conditions named. Binding seen in cells or lysates may run through a third protein. For part of these data: A result given as binding can be weak or reduced; the word gives no strength.

One assay concerns the target Myc-EphA2 (wild type) (UniProt P29317). The assay is described as follows: co-IP; HEK293 cells co-transfected with USP5 and EphA2 expression plasmids (wild type or deletion mutants); whole cell lysates, Protein A/G-Sepharose 4B, overnight at 4°C, 5 washes with RIPA buffer, immunoblotting. For orientation: A western blot detects proteins with antibodies after separation by electrophoresis.
“Flag-USP5 (wild type) (from UniProt P45974-2 1-835) (enzyme)”: the binding result is “binds”.

Consider “UBA1 and UBA2 domain deletion (D633-835) USP5 (from UniProt P45974-2 1-632) (domain or fragment)”, for which the binding result is recorded as “binds”.

With “USP5 ZnF-UBP domain (1-283) (from UniProt P45974-2 1-283) (domain or fragment)”, the binding result is “binds”.

For another assay the target is unchanged. The description is as above. This is another data set of the same source.
B1: the binding result is “no binding”.

Consider B2, for which the binding entry was “no binding”.

In the case of B3, the binding entry was “no binding”.
